# Measured values taken from PubChem BioAssay AID493014 (National Center for Advancing Translational Sciences (NCATS), 2011).
# Some of the results follow. The main result of the screen is listed elsewhere. These columns were measured beside it and carry no call. The list favours compounds with an active or inconclusive main result. The note in brackets gives the kind of curve behind each potency; many fits are weak.
# Experiment: qHTS Assay to Find Inhibitors of Chronic Active B-Cell Receptor Signaling
# Settings: ABC-DLBCL IkBa-CBG/CBR reporter, luminescence ratio (green luciferase fused to IkBa over red control in TMD8 lymphoma cells), 4 h
# Procedure, shortened: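 TMD8 ABC-DLBCL cells carrying doxycycline-inducible green luciferase fused to IkappaBalpha plus unfused red luciferase were exposed to compounds (up to 46 uM) for 4 hrs at 37C. Activity came from the overlap-corrected green/red luminescence ratio.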
# [1] = measured here: CBR red luminescence, cell number
# [2] = measured here: IkBa-CBG green luminescence
SMILES,AC50 [1],AC50 [2]
CCNC(=S)N/N=C/c1sccc1C,"35.5 µM [rising, single point]","3.98 µM [falling, full curve]"
CC1=NN(S(=O)(=O)c2ccc(C)cc2)C(=O)c2ccccc2O1,"22.4 µM [rising, single point]",
Cn1cccc1CC(=O)NNC(=O)Nc1ccc(Cl)cc1,"5.8 µM [rising, full curve, poor fit]",
CCc1nc(NC(C)C)c2oc3ccccc3c2n1,"2.51 µM [falling, partial curve, poor fit]",
COc1ccc(/C=N/NC(=O)c2ccoc2C)cc1CN1CCN(c2ccc(F)cc2)CC1,"20 µM [falling, single point]",
CCCCCCCCCC(=O)Nc1cccnc1,"3.16 µM [rising, single point]",
COc1ccccc1NC(=O)Nc1ccc(CC#N)cc1,"0.316 µM [falling, full curve, poor fit]",
Cn1ccnc1SCC(=O)c1cccc(Br)c1,"6.51 µM [rising, single point]",
CC(=O)Nc1ccc2c(c1)C(=O)N(C1CCCCC1)C2=O,"0.291 µM [rising, full curve, poor fit]",
Cc1ccc(C(=O)C(C)OC(=O)CNS(=O)(=O)c2ccc(C)cc2)cc1 (centres undefined),"29.1 µM [rising, single point]",
Cc1cccc(/C=N/Nc2nncc3ccccc23)c1,"7.08 µM [falling, partial curve, poor fit]",
O=C(Cc1cc(=O)oc2cc(O)ccc12)NCC1CCC(C(=O)O)CC1 (centres undefined),"35.5 µM [rising, single point]",
O=C(N/N=C/C(Br)=C/c1ccccc1)c1cccnc1,"35.5 µM [falling, single point]",
CC1(C)Cc2c(sc3[nH]c(=S)[nH]c(=O)c23)CO1,"22.4 µM [falling, partial curve]",
Cc1ccc(C(=O)OCc2nnc(-c3ccccc3)o2)o1,"3.26 µM [rising, partial curve, poor fit]",
S=C(NN=C(C1CC1)C1CC1)Nc1ccccc1,"23.1 µM [falling, single point]",
O=C(NNC(=S)Nc1ccc(Cl)cc1)c1ccccc1,"10 µM [falling, partial curve]",
O=C(Nc1ccccc1)OC1CCCCc2cccnc21 (centres undefined),"1.41 µM [rising, partial curve]",
Cc1cc(NC(=O)CSc2nc3cc(C)c(C)cc3cc2C)no1,"4.47 µM [rising, single point]",
CC(=O)Nc1ccc(Nc2nc(C)nc3c2oc2ccccc23)cc1,"16.4 µM [rising, single point]",
N#CC(c1ccc(F)cc1)c1ccc(C(=O)c2ccccc2)cc1 (centres undefined),"0.0291 µM [rising, full curve, poor fit]",
COc1ccc(C(=O)NNC(=O)c2cc3cccc(OC)c3oc2=O)cc1,"2.24 µM [falling, full curve, poor fit]",

SMILES,AC50 [1],AC50 [2]
Cc1cc(Nc2cccc(Cl)c2)nc(-c2ccccc2O)n1,"35.5 µM [falling, single point]",
CCc1ccc(C(C(=O)NC2CCCCC2)N(C(=O)c2csnn2)C2CC2)cc1 (centres undefined),"2.51 µM [rising, partial curve, poor fit]",
Oc1ccc(C=Nc2ccc3ncccc3c2)c(O)c1,"2 µM [falling, full curve, poor fit]","15.8 µM [falling, single point]"
NC(=O)c1cccc2c3c([nH]c12)CCCC3,"5.62 µM [rising, partial curve]",
O=C(O)c1cc(N/N=C/c2cccs2)ccc1Cl,"2 µM [falling, full curve, poor fit]",
COc1ccc(NC(=O)CC2CCCCC2)cc1OC,"1.58 µM [rising, partial curve, poor fit]",
CCn1c(SCc2ccc(C(=O)Nc3nccs3)cc2)nnc1-c1ccc(NC(C)=O)cc1,"0.316 µM [falling, full curve]",
N#CC1(C#N)C2=C(CCCC2)NC(c2ccccc2)C1(C#N)C#N (centres undefined),"12.6 µM [falling, partial curve, poor fit]",
O=C(NC1CCCCC1)C(c1ccco1)N(CCc1ccccc1)C(=O)C(F)(F)F (centres undefined),"23.1 µM [falling, single point]",
Cc1cc(C(=O)CN2C(=O)C(=O)N(CC(C)C)C2=O)c(C)n1-c1ccccc1F,"0.708 µM [falling, partial curve, poor fit]",
NC1(C#Cc2ccc3c(=O)c4ccccc4sc3c2)CCCCC1,"25.9 µM [falling, partial curve, poor fit]",
O=C(COc1ccc(Cl)cc1)NCCC1=CCCCC1,"12.6 µM [rising, partial curve, poor fit]",
COc1ccc(C)cc1NC(=O)c1nnn(Cc2cccc(F)c2)c1N,"18.4 µM [rising, single point]",
COc1cc(/C=N/NC(=O)c2ccc(=O)[nH]n2)ccc1O,"29.1 µM [falling, single point]",
Cc1c(NC(=O)c2cc(S(=O)(=O)N3CCCCC3)ccc2Cl)c(=O)n(-c2ccccc2)n1C,"6.51 µM [rising, partial curve, poor fit]",
O=c1[nH]c2cc3c(cc2cc1CN(Cc1cccnc1)C(=S)NCc1ccco1)OCCO3,"6.31 µM [falling, partial curve, poor fit]",
COc1ccccc1-c1nc(C(N)=O)c2[nH]c(=O)n(-c3cccc(C)c3)c2n1,"35.5 µM [falling, single point]",
O=C(O)c1ccc(N/N=C/c2ccnc3ccccc23)cc1,"0.00447 µM [falling, full curve, poor fit]",
COC(=O)c1cc(NS(=O)(=O)c2ccc3c(c2)CCC(=O)N3)cc(C(=O)OC)c1,"10.3 µM [rising, partial curve, poor fit]",
CCn1c(/C=C/c2ccccc2Cl)nc2ccccc2c1=O,"35.5 µM [falling, single point]",
COc1cccc(OC)c1OCCN1CCN(C(c2ccccc2)c2ccccc2)CC1,"35.5 µM [falling, single point]",
CCN1CCN(CCOCCOc2ccccc2)CC1,"0.447 µM [rising, full curve, poor fit]",

SMILES,AC50 [1],AC50 [2]
CSc1ccccc1NC(=O)Nc1ccc(Cl)cc1,"9.2 µM [falling, partial curve, poor fit]",
CN(C)c1ccc(/C=C/c2nc3ccccc3s2)cc1,"0.355 µM [falling, full curve, poor fit]",
COc1ccc(C(=O)Oc2ccc(C(C)=O)cc2)c(OC)c1,"1.26 µM [rising, full curve, poor fit]",
O=C(c1cccc(F)c1)N1CCc2ccccc21,"29.1 µM [rising, single point]",
CCc1cc(=O)oc2cc(OCC=C(C)C)ccc12,"11.2 µM [rising, partial curve, poor fit]",
O=C([O-])c1ccccc1-[n+]1c(-c2ccccc2)cc(-c2ccccc2)cc1-c1ccccc1,"5.8 µM [rising, single point]",
Brc1ccc(-c2csc(/N=C/N3CCOCC3)n2)cc1,"1.64 µM [rising, full curve]",
Cc1cccc(CC(C)NC(=O)c2oc3c(F)cccc3c2C)n1 (centres undefined),"7.94 µM [falling, partial curve, poor fit]",
CC(C)C[C@@H](CO)N1CCN(Cc2ccc(O)cc2)CCC1=O,"3.55 µM [rising, full curve, poor fit]",
CC1(C)C=Cc2c(c3c(c4c(=O)c(-c5ccc(O)cc5)coc24)OC(C)(C)CC3)O1,"1.12 µM [falling, full curve]",
Fc1ccc(-n2ncc3c(NCCCn4ccnc4)ncnc32)cc1,"5.62 µM [falling, full curve]",
COc1cc(-c2cc(C(=O)N3CCCCCC3)c3ccccc3n2)cc(OC)c1OC,"16.4 µM [falling, partial curve]",
O=C(/C=C/c1cccc([N+](=O)[O-])c1)NC(=S)Nc1ccccc1C(=O)O,"11.2 µM [falling, partial curve]","22.4 µM [rising, partial curve, poor fit]"
CCn1c(C)nc2cc(C(=O)N=Nc3c(O)[nH]c4c(C)cc(C)cc34)ccc21,"13 µM [rising, partial curve, poor fit]","0.58 µM [falling, partial curve, poor fit]"
O=C(N1CCOCC1)C1(c2ccc(Cl)cc2)CCCC1,"29.1 µM [rising, single point]",
Cc1ccc(-n2c(N)c(C(=O)NCc3cccnc3)sc2=S)cc1,"35.5 µM [rising, single point]",
O=c1cc(C(F)(F)F)[nH]c2ccc(C(F)(F)F)cc12,"5.01 µM [falling, full curve]",
N#CCc1cc2ccc3cccc4ccc(c1)c2c34,"35.5 µM [rising, partial curve, poor fit]",
O=C(OCCCCN1C(=O)c2ccccc2C1=O)c1n[nH]c2ccccc12,"11.6 µM [falling, partial curve, poor fit]",
O=C(COC(=O)c1ccc(S(=O)(=O)N2CCCC2)cc1)Nc1cccc(Br)c1,"0.731 µM [rising, full curve, poor fit]",
CCC(C(=O)OCC(=O)N1CCN(S(=O)(=O)c2ccc(C)cc2C)CC1)c1ccccc1 (centres undefined),"18.4 µM [falling, single point]",

# Four neighbouring entries already listed, quoted:
SMILES,AC50 [1],AC50 [2]
CC(C)C[C@@H](CO)N1CCN(Cc2ccc(O)cc2)CCC1=O,"3.55 µM [rising, full curve, poor fit]",
CC1(C)C=Cc2c(c3c(c4c(=O)c(-c5ccc(O)cc5)coc24)OC(C)(C)CC3)O1,"1.12 µM [falling, full curve]",
Fc1ccc(-n2ncc3c(NCCCn4ccnc4)ncnc32)cc1,"5.62 µM [falling, full curve]",
COc1cc(-c2cc(C(=O)N3CCCCCC3)c3ccccc3n2)cc(OC)c1OC,"16.4 µM [falling, partial curve]",
